These are yes or no findings as the source states them, for the method shown. Some binding calls cover weakened binding; strength is not graded here.
Experiments:
Assay in all cases: peptide or protein array; HuProt human proteome microarray; 5 ug/5 ml biotin-labelled LUBAC or OTULIN in solution, 1 h at room temperature; Cy5-streptavidin, scanned at 635 nm; BSA as negative control; hits: Z-score >= 3 and I_(Mean_Ratio) >= 1.4; both purified
COL8A1 (human) = COL8A1 (human) (UniProt P27658)
DCX (human) = molecular target: T1, DCX (human) (UniProt O43602)
T1 sequence: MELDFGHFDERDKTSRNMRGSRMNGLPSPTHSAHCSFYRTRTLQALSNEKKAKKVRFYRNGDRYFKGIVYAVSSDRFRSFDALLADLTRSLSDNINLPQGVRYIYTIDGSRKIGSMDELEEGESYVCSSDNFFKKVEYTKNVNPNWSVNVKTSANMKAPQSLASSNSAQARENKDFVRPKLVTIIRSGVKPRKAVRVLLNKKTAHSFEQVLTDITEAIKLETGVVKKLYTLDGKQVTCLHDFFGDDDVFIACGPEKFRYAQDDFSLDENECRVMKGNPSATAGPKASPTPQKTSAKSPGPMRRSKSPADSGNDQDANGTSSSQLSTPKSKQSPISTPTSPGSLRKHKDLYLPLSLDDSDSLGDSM

Protein sequences, listed by entry. Tags and fused reporters are not part of them.
UniProt Q7Z2E3: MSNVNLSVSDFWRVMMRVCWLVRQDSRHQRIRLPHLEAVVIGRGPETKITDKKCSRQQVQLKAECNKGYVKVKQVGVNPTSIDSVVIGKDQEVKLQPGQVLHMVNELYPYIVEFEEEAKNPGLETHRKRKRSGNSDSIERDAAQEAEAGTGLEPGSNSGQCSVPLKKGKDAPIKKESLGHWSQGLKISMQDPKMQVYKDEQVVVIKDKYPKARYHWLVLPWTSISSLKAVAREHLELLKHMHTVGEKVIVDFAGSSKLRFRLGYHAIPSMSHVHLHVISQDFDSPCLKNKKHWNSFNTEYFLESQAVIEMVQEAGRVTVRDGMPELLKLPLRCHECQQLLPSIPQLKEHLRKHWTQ
UniProt P11586: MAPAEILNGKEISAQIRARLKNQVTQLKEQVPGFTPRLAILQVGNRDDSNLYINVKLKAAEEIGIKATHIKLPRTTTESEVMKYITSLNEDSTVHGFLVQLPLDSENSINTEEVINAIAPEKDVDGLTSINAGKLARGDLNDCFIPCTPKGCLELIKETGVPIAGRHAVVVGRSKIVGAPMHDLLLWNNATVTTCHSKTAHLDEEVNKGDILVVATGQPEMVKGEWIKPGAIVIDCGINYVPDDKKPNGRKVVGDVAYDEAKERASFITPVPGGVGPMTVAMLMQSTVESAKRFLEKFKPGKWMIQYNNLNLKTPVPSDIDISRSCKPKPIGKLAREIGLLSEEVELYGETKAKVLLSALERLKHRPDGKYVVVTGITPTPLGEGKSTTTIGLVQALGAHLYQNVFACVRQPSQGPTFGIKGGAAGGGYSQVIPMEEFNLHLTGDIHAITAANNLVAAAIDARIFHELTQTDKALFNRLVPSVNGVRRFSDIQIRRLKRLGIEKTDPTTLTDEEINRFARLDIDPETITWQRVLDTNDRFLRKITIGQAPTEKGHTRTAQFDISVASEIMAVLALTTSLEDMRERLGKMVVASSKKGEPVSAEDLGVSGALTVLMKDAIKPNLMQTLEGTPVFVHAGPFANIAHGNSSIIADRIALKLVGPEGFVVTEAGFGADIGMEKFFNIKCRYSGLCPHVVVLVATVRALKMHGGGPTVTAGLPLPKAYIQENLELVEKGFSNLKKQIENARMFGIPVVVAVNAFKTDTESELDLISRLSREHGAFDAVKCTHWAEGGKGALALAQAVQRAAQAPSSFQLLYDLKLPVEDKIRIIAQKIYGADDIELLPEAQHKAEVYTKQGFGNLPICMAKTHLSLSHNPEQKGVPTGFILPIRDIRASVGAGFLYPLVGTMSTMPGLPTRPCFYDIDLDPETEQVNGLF
UniProt O96013: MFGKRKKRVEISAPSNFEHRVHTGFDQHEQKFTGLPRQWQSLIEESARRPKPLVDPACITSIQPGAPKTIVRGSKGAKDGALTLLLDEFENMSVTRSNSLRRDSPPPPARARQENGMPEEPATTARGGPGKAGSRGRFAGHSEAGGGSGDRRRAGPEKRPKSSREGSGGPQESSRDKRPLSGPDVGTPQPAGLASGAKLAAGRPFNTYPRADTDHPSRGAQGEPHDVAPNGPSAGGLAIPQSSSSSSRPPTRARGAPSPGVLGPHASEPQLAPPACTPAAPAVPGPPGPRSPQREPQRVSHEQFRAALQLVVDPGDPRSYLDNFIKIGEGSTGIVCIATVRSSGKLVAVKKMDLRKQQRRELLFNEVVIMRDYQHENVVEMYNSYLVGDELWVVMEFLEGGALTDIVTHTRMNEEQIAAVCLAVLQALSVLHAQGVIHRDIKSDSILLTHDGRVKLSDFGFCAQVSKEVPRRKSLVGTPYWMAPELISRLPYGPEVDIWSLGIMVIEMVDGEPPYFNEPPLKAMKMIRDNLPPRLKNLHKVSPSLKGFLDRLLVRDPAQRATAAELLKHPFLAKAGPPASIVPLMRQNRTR
UniProt Q9Y276: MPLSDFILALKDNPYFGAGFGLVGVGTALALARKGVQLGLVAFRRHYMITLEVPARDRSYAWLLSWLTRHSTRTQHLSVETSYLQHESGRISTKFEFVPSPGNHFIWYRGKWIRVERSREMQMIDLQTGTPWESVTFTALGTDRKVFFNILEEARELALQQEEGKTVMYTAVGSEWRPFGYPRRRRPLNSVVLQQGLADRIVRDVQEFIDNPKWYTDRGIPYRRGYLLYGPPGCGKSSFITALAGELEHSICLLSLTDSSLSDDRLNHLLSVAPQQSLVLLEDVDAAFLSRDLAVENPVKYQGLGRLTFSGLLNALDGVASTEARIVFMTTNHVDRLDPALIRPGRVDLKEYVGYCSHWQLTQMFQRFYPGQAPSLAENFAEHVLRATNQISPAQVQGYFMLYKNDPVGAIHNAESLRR

APTX (human) = APTX (human) (UniProt Q7Z2E3)
MTHFD1 (human) = MTHFD1 (human) (UniProt P11586)
NECAP2 (human) = molecular target: T2, NECAP2 (human) (UniProt Q9NVZ3)
T2 sequence: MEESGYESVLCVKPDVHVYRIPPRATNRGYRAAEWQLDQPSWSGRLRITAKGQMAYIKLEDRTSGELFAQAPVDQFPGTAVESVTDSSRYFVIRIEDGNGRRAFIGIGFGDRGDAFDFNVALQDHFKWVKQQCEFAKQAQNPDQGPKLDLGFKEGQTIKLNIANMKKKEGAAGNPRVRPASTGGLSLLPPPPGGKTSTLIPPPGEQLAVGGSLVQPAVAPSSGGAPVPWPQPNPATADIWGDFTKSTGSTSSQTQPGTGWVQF

PAK4 (human) = PAK4 (human) (UniProt O96013)
A1CF (human) = molecular target: T3, A1CF (human) (UniProt Q9NQ94)
T3 sequence: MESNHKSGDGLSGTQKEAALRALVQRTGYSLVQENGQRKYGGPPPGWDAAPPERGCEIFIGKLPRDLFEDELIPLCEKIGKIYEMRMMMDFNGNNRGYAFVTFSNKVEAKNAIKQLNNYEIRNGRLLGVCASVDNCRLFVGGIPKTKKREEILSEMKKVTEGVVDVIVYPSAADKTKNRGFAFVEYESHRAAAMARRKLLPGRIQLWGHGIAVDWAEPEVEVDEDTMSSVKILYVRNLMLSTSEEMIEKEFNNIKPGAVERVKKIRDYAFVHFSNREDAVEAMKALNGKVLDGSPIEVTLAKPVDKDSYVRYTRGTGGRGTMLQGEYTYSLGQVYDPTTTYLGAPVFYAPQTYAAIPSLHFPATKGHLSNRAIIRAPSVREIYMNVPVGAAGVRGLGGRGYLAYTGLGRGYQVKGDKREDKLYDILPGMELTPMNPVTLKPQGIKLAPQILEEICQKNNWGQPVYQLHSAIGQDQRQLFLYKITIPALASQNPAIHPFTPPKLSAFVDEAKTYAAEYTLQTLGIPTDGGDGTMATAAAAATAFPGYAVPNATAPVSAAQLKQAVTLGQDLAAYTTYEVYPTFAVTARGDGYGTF

BCS1L (human) = BCS1L (human) (UniProt Q9Y276)
AKR1D1 (human) = molecular target: T4, AKR1D1 (human) (UniProt P51857)
T4 sequence: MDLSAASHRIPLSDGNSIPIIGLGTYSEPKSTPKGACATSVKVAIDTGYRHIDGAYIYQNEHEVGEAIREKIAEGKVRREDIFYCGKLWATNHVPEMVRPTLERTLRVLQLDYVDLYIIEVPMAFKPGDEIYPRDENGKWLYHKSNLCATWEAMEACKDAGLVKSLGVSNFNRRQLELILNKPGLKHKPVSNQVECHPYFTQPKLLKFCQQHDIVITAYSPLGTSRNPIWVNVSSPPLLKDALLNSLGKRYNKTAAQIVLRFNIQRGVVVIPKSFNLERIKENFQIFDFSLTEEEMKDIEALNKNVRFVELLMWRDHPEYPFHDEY

- binding (COL8A1 (human)): binds
- binding (DCX (human)): binds
- binding (APTX (human)): binds
- binding (MTHFD1 (human)): binds
- binding (NECAP2 (human)): binds
- binding (PAK4 (human)): binds
- binding (A1CF (human)): binds
- binding (BCS1L (human)): binds
- binding (AKR1D1 (human)): binds
Substance: linear ubiquitin chain assembly complex (LUBAC), purified as HIS-tagged HOIP with the subunit HOIL-1, biotin-labelled (from UniProt Q96EP0 1-1072; Q9BYM8 1-510)

Source: PMC8274477
